Laboratory results reported in patent EP4759823A1, “PEPTIDE HAVING ACTIVITIES OF PROMOTING HAIR GROWTH AND INHIBITING HAIR LOSS, AND USES THEREOF” (Caregen Co., Ltd., priority 2023, dated 2025).
Not every detail of the peptide structures is certain; ends, links or a residue may be inferred. Residues, ends and D or L forms follow the SMILES beside them.

What was measured:
Type in all cases: cell-based
[1] = test system: human hair follicle dermal papilla cells (HHFDPCs); experiment: Western blot of phospho-AKT and phospho-ERK in HHFDPCs; conditions: peptide at 10 µM, 50 µM, and 100 µM, 24 hours
[2] = test system: human hair follicle dermal papilla cells (HHFDPCs); experiment: RT-PCR of growth factor gene expression in HHFDPCs; conditions: 10 µM, 50 µM, and 100 µM, 24 hours
[3] = test system: human hair follicle dermal papilla cells (HHFDPCs); experiment: Western blot of nuclear β-catenin in HHFDPCs; conditions: 10 µM, 50 µM, and 100 µM, 24 hours, nuclear proteins
[4] = test system: human hair follicle dermal papilla cells (HHFDPCs); experiment: RT-PCR of β-catenin downstream genes in HHFDPCs; conditions: 10 µM, 50 µM, and 100 µM, 24 hours
[5] = test system: human hair follicle dermal papilla cells (HHFDPCs); experiment: Western blot of DHT-induced DKK-1 in HHFDPCs; conditions: peptide at 10 µM, 50 µM, and 100 µM with DHT 100 nM, 24 hours, concentration-dependent
[6] = test system: human hair outer root sheath cells (HHORSCs); experiment: RT-PCR of cytokeratin gene expression in HHORSCs; conditions: 10 µM, 50 µM, and 100 µM, 24 hours
[7] = test system: human hair germinal matrix cells (HHGMCs); experiment: RT-PCR of transcription factor gene expression in HHGMCs; conditions: 10 µM, 50 µM, and 100 µM, 24 hours
[8] = test system: human hair follicle stem cells (HHFSCs); experiment: MTT proliferation assay in HHFSCs; conditions: 10 µM, 50 µM, and 100 µM, 72 hours, concentration-dependent, maximum value
[9] = test system: human hair follicle stem cells (HHFSCs); experiment: RT-PCR of stem cell marker genes in HHFSCs; conditions: 10 µM, 50 µM, and 100 µM, 24 hours, compared to a control
[10] = test system: human hair follicle stem cells (HHFSCs); experiment: RT-PCR of differentiation marker genes in HHFSCs; conditions: 10 µM, 50 µM, and 100 µM, 24 hours, compared to a negative control
[11] = test system: human hair follicle stem cells (HHFSCs); experiment: Western blot of stem cell marker proteins in HHFSCs; conditions: 10 µM, 50 µM, and 100 µM, 72 hours
[12] = test system: human hair follicle stem cells (HHFSCs); experiment: Western blot of differentiation marker proteins in HHFSCs; conditions: 10 µM, 50 µM, and 100 µM, 72 hours

N=C(N)NCCC[C@H](NC(=O)[C@@H](N)CC(=O)O)C(=O)N[C@@H](Cc1ccccc1)C(=O)N[C@@H](Cc1ccccc1)C(=O)O [peptide of Preparation Example 1, DRFF] (H-DRFF-OH)
phosphorylation of Akt [1]: increased
phosphorylation of extracellular signal-regulated kinase (ERK) [1]: increased
expression of HGF [2]: promoting
expression of KGF [2]: promoting
expression of VEGF [2]: promoting
expression of bFGF [2]: promoting
nuclear translocation of β-catenin [3]: markedly increased
gene expression of Cyclin D1 [4]: increasing
gene expression of LEF-1 [4]: increasing
gene expression of c-Myc [4]: increasing
expression of the hair loss-inducing protein DKK-1 induced by DHT treatment [5]: decreased
gene expression of Ha3-II [6]: increasing
gene expression of Keratin 5 [6]: increasing
gene expression of Keratin 14 [6]: increasing
gene expression of Keratin 19 [6]: increasing
gene expression of FOXN1 [7]: increased
gene expression of HOXC13 [7]: increased
gene expression of MSX2 [7]: increased
proliferation of HHFSCs promoted compared to a control [8]: up to 53.73%
gene expression of CD133 [9]: markedly decreased
gene expression of Keratin 15 [9]: markedly decreased
gene expression of LHX2 [9]: markedly decreased
gene expression of Nexin-1 [10]: markedly increased
gene expression of Versican [10]: markedly increased
gene expression of Vimentin [10]: markedly increased
gene expression of α-SMA [10]: markedly increased
protein expression of CD34 [11]: decreased
protein expression of CD133 [11]: decreased
protein expression of Keratin 15 [11]: decreased
protein expression of Keratin 75 [12]: markedly increased
protein expression of Versican [12]: markedly increased
protein expression of α-SMA [12]: markedly increased
